Consider two substances from publication PMC4332439.

By UniProt entry, the sequences of proteins in these tests, tags left out. Residues count along the entry.
UniProt Q7TQN4: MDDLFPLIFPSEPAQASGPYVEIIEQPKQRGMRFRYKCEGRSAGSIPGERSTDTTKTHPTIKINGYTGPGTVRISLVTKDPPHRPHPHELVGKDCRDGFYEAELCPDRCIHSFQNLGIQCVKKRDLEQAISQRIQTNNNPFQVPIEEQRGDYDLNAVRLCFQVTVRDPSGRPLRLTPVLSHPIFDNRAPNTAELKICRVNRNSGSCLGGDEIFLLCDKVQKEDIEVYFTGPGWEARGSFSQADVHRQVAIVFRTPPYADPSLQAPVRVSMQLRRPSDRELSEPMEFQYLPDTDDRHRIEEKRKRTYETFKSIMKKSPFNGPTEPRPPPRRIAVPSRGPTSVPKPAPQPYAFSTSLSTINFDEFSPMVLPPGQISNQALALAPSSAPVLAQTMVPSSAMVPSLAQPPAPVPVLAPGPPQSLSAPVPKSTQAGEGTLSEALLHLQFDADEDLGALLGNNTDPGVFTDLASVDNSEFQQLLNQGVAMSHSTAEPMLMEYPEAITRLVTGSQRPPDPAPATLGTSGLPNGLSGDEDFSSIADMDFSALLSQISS
UniProt P27467, residues 19-352: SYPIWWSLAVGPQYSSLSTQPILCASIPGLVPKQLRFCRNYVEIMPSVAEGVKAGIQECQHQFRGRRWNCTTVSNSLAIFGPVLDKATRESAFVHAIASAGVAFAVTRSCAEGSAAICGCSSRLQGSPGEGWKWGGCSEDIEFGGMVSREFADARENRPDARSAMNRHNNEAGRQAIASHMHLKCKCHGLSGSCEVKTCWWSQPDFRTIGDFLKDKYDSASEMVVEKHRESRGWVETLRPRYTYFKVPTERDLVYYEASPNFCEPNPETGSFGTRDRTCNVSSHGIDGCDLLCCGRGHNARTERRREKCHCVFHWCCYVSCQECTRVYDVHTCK

The target in test [1] is T1, β-catenin (rat (endogenous in rat ENS cells)) (UniProt Q9WU82).
T1 sequence: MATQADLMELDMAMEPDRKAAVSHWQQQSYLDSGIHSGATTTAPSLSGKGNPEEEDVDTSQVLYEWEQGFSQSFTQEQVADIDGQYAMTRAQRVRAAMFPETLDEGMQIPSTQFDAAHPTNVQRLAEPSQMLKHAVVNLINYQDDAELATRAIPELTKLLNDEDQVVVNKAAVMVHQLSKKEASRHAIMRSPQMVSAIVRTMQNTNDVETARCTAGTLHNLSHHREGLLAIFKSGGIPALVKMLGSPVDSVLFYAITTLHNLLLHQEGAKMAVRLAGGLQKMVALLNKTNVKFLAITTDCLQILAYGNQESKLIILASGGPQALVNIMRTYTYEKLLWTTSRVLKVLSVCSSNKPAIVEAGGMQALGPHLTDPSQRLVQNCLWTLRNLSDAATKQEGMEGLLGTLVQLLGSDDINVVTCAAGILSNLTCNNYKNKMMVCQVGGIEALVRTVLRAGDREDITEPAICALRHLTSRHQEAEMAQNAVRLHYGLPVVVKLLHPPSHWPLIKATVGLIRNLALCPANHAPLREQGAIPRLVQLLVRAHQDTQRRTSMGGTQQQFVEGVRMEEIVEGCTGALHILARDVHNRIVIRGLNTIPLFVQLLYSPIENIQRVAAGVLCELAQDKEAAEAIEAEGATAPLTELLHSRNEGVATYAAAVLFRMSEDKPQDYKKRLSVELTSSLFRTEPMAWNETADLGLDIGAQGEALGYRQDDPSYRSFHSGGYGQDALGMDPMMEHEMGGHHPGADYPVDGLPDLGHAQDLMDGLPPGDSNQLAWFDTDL
The experiment in a line: co-IP; nuclear protein extracts (RIPA) of rat ENS cells cultured for 7 days in SM or BM; immunoaffinity purification with anti-NF-κB p65 or anti-β-catenin pre-immobilized onto Protein A Sepharose; Western blot with both antibodies on a 6.5% polyacrylamide gel. (In general: Immunoblotting shows a protein as a band on a membrane.)

In test [2] the target is T2, Frizzled 9 (rat (endogenous in rat ENS cells)) (UniProt Q8K4C8).
T2 sequence: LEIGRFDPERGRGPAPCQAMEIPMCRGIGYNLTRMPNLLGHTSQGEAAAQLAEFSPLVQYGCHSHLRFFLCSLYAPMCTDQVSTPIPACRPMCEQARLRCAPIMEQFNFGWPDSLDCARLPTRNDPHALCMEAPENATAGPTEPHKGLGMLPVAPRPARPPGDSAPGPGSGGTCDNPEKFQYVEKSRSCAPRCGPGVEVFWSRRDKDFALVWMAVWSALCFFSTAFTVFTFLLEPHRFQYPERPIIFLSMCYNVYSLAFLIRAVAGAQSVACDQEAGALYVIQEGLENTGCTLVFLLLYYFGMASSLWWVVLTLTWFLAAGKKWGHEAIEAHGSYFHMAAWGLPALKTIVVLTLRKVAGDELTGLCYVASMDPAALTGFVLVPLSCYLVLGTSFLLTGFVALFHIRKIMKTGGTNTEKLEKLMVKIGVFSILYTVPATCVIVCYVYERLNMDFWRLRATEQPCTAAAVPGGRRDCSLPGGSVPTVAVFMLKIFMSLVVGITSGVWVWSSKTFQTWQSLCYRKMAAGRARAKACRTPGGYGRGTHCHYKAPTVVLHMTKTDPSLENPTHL
The test is described as follows: co-IP; recombinant Wnt3a (200 ng/mL) added to protein extracts of rat ENS cells cultured for 7 days in SM or BM, overnight at 4°C; immunoaffinity purification with goat anti-rat Frizzled 9 and rabbit anti-rat Wnt3a pre-immobilized onto Protein A Sepharose; Western blot with the same antibodies on a 4%-15% gradient gel; only the binder purified.

These are yes or no findings as the source states them, for the method shown. In cells and extracts the contact can be indirect. Some binding calls cover weakened binding; strength is not graded here.

Consider NF-κB p65 (from UniProt Q7TQN4 1-550), for which, in test [1], the binding result was “binds”.
For the substance “Recombinant Wnt3a protein (from UniProt P27467 19-352) (ligand)”, the binding result in test [2] is recorded as “binds”.
